The other results are listed elsewhere or left out.
Legend:
Test in all cases: log2 fold change, soluble protein after heating vs DMSO (PISA); higher = thermal stabilisation; K562 cells, 10 uM, 30 min; active = over 0.2 and 3.5 SD of the protein, either way, in both replicates (recomputed)
[1] = compound: CC[C@@H]1C(=O)N(C)c2cnc(Nc3ccc(C(=O)NC4CCN(C)CC4)cc3OC)nc2N1C1CCCC1
In short: (§1)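 Thermal stability values are relative to control samples and come from duplicates. They are expressed as log2 fold changes. For measurement, K562 cells (2×10^6 cells/mL) received 10 μM compound for 30 min, and aliquots were heated for 3 min over 48°C-58°C, pooled, and extracted at 4°C in PBS with 0.5% NP-40. Soluble protein, the supernatant after 21,000xg for 90 min, was quantified by TMTpro 16plex LC-MS/MS with equalised channel sums.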

Sequences of proteins named here, by UniProt entry; tags and fusion partners are left off. A change or cut given only in a name is not applied to a line headed by its entry.
UniProt Q13033: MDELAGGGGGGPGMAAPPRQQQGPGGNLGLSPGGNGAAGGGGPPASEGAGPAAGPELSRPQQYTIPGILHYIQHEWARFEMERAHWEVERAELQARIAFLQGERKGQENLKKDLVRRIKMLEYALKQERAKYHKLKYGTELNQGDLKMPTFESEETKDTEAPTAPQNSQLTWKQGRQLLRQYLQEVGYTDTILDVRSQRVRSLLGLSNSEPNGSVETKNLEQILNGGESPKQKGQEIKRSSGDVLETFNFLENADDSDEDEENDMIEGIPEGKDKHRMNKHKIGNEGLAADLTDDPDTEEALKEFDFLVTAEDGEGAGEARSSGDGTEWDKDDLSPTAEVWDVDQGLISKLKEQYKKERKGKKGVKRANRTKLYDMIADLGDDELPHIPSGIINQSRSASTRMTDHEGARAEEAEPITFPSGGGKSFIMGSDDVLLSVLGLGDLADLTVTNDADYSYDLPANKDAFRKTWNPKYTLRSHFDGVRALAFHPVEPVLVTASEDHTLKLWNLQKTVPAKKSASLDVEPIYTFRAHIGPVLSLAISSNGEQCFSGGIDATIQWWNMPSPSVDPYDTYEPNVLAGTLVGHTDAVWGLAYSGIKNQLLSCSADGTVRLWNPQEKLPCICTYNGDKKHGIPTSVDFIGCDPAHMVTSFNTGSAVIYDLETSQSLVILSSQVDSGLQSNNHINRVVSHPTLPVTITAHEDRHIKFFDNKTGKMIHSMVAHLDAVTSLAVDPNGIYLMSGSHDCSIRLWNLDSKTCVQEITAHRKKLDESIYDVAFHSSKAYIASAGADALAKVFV
UniProt Q92804: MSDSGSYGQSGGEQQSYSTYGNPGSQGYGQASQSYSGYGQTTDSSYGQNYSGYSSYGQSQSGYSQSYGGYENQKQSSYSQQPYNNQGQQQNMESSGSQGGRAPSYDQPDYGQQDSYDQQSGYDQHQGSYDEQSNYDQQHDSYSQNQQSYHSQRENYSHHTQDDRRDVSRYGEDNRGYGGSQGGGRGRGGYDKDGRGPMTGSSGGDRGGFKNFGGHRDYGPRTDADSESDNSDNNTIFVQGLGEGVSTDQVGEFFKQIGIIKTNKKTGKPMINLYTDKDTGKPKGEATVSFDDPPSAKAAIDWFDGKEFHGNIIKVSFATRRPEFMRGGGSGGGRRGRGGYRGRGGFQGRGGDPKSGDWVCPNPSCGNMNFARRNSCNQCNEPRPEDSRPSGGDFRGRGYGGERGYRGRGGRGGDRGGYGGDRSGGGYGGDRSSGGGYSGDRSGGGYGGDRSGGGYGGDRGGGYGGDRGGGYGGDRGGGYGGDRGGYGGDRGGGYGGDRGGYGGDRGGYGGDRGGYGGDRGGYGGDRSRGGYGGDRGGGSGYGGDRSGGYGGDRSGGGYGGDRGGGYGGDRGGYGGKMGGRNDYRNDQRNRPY
UniProt O43759: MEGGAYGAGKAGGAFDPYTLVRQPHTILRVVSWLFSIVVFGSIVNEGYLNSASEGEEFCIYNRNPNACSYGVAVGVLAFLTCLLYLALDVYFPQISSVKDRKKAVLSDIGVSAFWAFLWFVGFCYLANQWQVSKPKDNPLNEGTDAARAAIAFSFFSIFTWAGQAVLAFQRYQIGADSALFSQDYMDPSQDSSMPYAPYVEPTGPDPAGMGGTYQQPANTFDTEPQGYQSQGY
UniProt Q7Z422: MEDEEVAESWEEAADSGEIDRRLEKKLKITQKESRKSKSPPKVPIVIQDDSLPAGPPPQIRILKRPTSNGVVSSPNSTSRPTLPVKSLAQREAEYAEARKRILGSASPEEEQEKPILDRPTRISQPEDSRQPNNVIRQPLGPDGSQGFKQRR
UniProt O60499: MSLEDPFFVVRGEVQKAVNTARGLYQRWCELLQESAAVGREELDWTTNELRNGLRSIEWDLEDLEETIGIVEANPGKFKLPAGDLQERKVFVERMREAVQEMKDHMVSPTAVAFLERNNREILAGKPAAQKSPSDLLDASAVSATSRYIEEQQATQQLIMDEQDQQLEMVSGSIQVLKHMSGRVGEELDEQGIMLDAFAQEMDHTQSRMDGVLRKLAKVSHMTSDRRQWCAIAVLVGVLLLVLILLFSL
UniProt Q8TCJ2: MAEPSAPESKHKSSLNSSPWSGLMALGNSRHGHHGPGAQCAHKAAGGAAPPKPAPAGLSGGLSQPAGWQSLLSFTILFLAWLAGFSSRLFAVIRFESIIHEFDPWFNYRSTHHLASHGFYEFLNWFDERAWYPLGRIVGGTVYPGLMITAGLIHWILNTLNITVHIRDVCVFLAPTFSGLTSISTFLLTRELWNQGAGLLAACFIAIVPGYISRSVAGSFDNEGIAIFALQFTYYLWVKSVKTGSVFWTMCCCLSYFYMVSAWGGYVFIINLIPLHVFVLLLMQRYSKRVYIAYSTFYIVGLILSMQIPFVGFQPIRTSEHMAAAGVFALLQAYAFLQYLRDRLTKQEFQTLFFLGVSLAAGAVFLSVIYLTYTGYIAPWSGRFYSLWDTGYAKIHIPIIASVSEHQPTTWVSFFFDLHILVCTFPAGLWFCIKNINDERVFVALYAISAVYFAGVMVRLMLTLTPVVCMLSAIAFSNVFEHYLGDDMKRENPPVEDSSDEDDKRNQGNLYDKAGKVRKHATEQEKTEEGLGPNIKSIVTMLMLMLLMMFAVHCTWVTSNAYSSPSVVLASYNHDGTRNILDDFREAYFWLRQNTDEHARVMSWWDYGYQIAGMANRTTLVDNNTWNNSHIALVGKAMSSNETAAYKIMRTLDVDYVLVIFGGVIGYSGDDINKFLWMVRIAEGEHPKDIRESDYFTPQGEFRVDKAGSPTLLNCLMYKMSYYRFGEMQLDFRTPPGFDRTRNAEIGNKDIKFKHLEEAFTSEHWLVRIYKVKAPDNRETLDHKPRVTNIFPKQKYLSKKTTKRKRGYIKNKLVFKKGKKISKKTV
UniProt Q5VSL9: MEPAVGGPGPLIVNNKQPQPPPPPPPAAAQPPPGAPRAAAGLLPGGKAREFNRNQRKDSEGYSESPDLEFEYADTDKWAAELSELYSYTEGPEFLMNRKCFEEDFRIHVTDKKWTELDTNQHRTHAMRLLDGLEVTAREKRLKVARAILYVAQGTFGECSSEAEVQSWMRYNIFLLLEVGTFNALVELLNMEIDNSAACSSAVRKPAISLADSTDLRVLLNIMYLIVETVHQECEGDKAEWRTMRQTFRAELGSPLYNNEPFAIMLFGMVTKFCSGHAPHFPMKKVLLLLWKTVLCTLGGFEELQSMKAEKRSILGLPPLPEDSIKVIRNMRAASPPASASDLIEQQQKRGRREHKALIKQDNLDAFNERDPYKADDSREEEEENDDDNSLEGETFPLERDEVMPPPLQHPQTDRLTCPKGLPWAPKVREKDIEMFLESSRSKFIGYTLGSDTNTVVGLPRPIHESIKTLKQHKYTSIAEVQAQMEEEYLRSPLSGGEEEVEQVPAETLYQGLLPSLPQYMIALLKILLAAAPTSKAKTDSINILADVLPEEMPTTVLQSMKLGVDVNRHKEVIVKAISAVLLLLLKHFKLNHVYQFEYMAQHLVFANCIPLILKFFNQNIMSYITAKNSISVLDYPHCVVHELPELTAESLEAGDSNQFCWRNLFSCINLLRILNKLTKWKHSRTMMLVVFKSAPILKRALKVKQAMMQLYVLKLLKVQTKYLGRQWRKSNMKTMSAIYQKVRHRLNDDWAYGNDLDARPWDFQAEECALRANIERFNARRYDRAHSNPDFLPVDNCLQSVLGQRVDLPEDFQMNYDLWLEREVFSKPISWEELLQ
UniProt P55854, whole entry, looked up: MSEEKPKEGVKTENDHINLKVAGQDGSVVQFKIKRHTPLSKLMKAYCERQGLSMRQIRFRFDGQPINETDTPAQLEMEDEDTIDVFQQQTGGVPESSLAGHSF
UniProt O15260: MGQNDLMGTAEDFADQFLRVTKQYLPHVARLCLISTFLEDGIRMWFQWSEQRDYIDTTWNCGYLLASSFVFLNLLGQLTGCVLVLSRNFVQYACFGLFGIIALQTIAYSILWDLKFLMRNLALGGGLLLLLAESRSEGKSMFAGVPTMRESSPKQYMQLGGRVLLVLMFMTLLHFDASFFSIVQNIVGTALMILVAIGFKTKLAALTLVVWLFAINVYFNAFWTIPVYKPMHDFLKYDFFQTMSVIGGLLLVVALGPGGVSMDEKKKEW
UniProt O43426, whole entry, looked up: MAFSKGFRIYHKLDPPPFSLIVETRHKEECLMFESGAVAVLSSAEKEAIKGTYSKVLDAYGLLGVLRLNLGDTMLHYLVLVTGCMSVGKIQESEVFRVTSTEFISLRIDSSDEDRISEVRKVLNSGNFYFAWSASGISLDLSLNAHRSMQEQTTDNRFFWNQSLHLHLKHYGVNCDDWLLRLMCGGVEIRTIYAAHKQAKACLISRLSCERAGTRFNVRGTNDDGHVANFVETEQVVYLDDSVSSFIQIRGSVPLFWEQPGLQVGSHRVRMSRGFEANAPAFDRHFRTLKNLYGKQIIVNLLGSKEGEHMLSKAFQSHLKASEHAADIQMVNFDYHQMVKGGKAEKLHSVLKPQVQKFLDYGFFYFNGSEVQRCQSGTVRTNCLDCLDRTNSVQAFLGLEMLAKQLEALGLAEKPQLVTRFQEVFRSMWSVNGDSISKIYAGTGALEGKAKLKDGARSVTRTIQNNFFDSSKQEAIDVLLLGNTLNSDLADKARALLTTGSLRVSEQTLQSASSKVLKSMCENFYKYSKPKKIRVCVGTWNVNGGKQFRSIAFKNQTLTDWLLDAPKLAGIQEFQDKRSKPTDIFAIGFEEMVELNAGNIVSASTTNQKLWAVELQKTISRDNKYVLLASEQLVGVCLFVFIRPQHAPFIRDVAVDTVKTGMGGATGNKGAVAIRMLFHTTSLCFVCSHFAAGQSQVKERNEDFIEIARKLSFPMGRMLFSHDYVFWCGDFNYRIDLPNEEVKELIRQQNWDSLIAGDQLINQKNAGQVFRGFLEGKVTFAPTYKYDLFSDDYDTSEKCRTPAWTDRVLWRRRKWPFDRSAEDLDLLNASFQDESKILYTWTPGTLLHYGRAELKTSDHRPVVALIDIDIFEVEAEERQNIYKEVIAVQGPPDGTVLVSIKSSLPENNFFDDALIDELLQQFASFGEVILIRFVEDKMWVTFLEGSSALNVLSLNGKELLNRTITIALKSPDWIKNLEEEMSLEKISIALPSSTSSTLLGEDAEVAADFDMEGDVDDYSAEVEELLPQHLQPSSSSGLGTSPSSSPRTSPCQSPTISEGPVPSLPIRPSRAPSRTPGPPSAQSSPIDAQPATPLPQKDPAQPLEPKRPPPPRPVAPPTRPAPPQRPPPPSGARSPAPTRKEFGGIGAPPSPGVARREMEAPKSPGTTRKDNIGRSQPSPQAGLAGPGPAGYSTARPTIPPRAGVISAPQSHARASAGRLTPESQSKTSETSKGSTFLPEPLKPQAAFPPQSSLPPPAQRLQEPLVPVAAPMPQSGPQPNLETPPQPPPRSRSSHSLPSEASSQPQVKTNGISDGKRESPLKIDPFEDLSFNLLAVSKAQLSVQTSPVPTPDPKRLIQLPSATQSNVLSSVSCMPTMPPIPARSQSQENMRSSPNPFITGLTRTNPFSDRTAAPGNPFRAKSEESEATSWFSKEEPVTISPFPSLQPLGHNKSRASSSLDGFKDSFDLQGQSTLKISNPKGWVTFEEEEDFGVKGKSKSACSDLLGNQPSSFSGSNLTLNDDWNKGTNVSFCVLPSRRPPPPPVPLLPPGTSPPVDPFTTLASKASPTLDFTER
UniProt Q6NXT6: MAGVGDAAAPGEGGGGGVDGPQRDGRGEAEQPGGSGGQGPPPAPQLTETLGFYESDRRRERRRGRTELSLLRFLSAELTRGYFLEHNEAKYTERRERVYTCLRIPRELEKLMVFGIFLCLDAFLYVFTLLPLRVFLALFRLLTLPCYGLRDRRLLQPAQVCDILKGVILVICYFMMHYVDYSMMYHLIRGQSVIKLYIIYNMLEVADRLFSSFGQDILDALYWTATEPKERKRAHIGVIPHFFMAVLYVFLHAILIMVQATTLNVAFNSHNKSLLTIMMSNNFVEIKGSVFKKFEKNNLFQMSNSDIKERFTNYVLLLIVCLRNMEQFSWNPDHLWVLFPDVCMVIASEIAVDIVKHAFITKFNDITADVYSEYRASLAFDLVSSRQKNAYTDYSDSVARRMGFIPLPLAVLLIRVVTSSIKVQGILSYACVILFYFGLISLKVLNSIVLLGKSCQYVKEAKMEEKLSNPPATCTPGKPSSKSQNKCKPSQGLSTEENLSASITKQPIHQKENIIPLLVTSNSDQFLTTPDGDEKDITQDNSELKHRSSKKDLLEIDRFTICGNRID
UniProt P37837: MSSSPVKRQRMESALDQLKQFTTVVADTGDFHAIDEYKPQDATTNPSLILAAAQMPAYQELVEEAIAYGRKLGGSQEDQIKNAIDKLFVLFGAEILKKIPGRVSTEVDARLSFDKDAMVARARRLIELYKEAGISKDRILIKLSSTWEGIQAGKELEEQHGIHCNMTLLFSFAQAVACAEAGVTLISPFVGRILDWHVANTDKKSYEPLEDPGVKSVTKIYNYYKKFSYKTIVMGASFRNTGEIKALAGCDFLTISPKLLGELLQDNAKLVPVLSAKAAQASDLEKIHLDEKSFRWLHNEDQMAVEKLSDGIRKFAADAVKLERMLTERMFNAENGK

volasertib = compound: CC[C@@H]1C(=O)N(C)c2cnc(Nc3ccc(C(=O)N[C@H]4CC[C@H](N5CCN(CC6CC6)CC5)CC4)cc3OC)nc2N1C(C)C [volasertib]
In short: as §1

[2] = compound: CC[C@H](C)N1C=C(C2=C(C=C(C=C21)C3=CN=C(C=C3)N4CCNCC4)C(=O)NCC5=C(C=C(NC5=O)C)C)C
In short: as §1

epoxomicin = compound: CC[C@H](C)[C@@H](C(=O)N[C@@H]([C@@H](C)O)C(=O)N[C@@H](CC(C)C)C(=O)[C@]1(CO1)C)NC(=O)[C@H]([C@@H](C)CC)N(C)C(=O)C [epoxomicin]
In short: as §1

[3] = compound: CCn1c(C(=O)N(C2CC2)C2CC2)cc2c3c(ncn3C)c(Nc3cc(C)n(C)n3)nc21
In short: as §1

[4] = compound: CCn1cc(-c2ccnc3[nH]c(-c4cccc(CN(C)C)c4)cc23)c(-c2ccc(NC(=O)N(C)C)cc2)n1
In short: as §1

[5] = compound: CN(C)CC(=O)Nc1ccc2[nH]c(=O)c3ccccc3c2c1
In short: as §1

rosiglitazone = compound: CN(CCOC1=CC=C(C=C1)C[C@H]2C(=O)NC(=O)S2)C3=CC=CC=N3 (racemic) [rosiglitazone]
In short: as §1

[6] = compound: CN1C2=C(C3=C1C(=O)N(N=C3)CC4=CC(=CC=C4)N)SC(=C2)S(=O)C
In short: as §1

[7] = compound: CN1CCC(CNc2ccc3ncc(-c4cccc(OC(F)(F)F)c4)n3n2)CC1
In short: as §1

Measured: log2 fold change

STRN3 (UniProt Q13033)
inactive: [1] -0.007 | volasertib -0.073 | [2] 0.038 | epoxomicin 0.043 | [3] 0.021 | [4] -0.033 | [5] 0.005 | rosiglitazone 0.033 | [6] -0.001 | [7] 0.026

SUMF2 (UniProt Q8NBJ7)
inactive: [1] -0.012 | volasertib -0.036 | [2] 0.029 | epoxomicin -0.009 | [3] 0.035 | [4] 0.02 | [5] -0.04 | rosiglitazone 0.008 | [6] 0.026 | [7] 0.016

TAF15 (UniProt Q92804)
inactive: [1] 0.158 | volasertib 0.086 | [2] -0.017 | epoxomicin -0.137 | [3] 0.024 | [4] 0.026 | [5] -0.075 | rosiglitazone -0.107 | [6] 0.108 | [7] 0.033

SUCLG2 (UniProt Q96I99)
inactive: [1] -0.005 | volasertib -0.065 | [2] 0.024 | epoxomicin 0.036 | [3] 0.014 | [4] -0.053 | [5] 0.015 | rosiglitazone 0.024 | [6] -0.06 | [7] -0.049

STX4 (UniProt Q12846)
inactive: [1] 0.035 | volasertib -0.051 | [2] 0.039 | epoxomicin 0.019 | [3] -0.005 | [4] 0.01 | [5] -0.046 | rosiglitazone 0.024 | [6] 0.023 | [7] 0.086

SYNGR1 isoform 3 (UniProt O43759)
inactive: [1] 0.097

STX18 (UniProt Q9P2W9)
inactive: [1] -0.059 | volasertib -0.191 | [2] 0.073 | epoxomicin 0.043 | [3] -0.027 | [4] -0.061 | [5] 0.03 | rosiglitazone 0.059 | [6] -0.089 | [7] -0.131

TARSL2 (UniProt A2RTX5)
inactive: [1] -0.001 | volasertib -0.015 | [2] 0.001 | epoxomicin -0.012 | [3] 0.036 | [4] -0.077 | [5] 0.016 | rosiglitazone 0.023 | [6] -0.02 | [7] -0.157

SZRD1 (UniProt Q7Z422)
inactive: [1] -0.017 | volasertib 0.091 | [2] 0.001 | epoxomicin 0.003 | [3] -0.026 | [4] -0.018 | [5] -0.059 | rosiglitazone -0.059 | [6] 0.011 | [7] -0.026

SUB1 (UniProt P53999)
inactive: [1] -0.047 | volasertib 0.037 | [2] 0.019 | epoxomicin -0.009 | [3] -0.001 | [4] -0.001 | [5] -0.038 | rosiglitazone 0.011 | [6] -0.01 | [7] -0.041

STX3 (UniProt Q13277)
inactive: [1] -0.016 | volasertib -0.006 | [2] -0.043 | epoxomicin 0.034 | [3] 0.045 | [4] -0.013 | [5] 0.037 | rosiglitazone 0.01 | [6] -0.063 | [7] 0.135

SYNJ2BP-COX16, A0A087WYV9
inactive: [1] -0.001 | volasertib 0.032 | [2] 0.01 | epoxomicin -0.061 | [3] 0.014 | [4] 0.085 | [5] -0.015 | rosiglitazone -0.014 | [6] 0.054 | [7] -0.002

STX10 (UniProt O60499)
inactive: [1] -0.213 | volasertib -0.02 | [2] -0.055 | epoxomicin 0.017 | [3] -0.059 | [4] -0.062 | [5] 0.013 | rosiglitazone 0.035 | [6] -0.052 | [7] -0.093

STT3B (UniProt Q8TCJ2)
inactive: [1] 0.019 | volasertib 0.034 | [2] -0.004 | epoxomicin 0.004 | [3] -0.032 | [4] 0.072 | [5] -0.042 | rosiglitazone -0.006 | [6] 0.066 | [7] 0.067

SURF6 (UniProt O75683)
inactive: [1] 0.256 | volasertib 0.484 | [2] -0.145 | epoxomicin -0.366 | [3] -0.052 | [4] 0.329 | [5] -0.054 | rosiglitazone -0.15 | [6] 0.326 | [7] 0.488

STRADA (UniProt Q7RTN6)
inactive: [1] 0.043 | volasertib 0.003 | [2] 0.003 | epoxomicin 0.099 | [3] 0.011 | [4] -0.083 | [5] -0.013 | rosiglitazone 0.01 | [6] -0.039 | [7] 0.09

STRIP1 (UniProt Q5VSL9)
inactive: [1] -0.015 | volasertib -0.13 | [2] 0.03 | epoxomicin 0.065 | [3] -0.026 | [4] 0.003 | [5] 0.016 | rosiglitazone 0.067 | [6] -0.008 | [7] 0.039

SYNCRIP isoform 3 (UniProt O60506)
inactive: [1] 0.142 | volasertib 0.084 | [2] -0.008 | epoxomicin -0.213 | [3] 0.104 | [4] 0.09 | [5] -0.112 | rosiglitazone -0.019 | [6] 0.082 | [7] 0.173

STXBP3 (UniProt O00186)
inactive: [1] -0.031 | volasertib -0.335 | [2] 0.075 | epoxomicin 0.014 | [3] -0.139 | [4] -0.096 | [5] 0.034 | rosiglitazone 0.097 | [6] 0.069 | [7] -0.087

Retrieved one by one from the entries so far, 2 records:
SYNGR1 isoform 3 (UniProt O43759)
inactive: [1] 0.097

TAF15 (UniProt Q92804)
inactive: [1] 0.158 | volasertib 0.086 | [2] -0.017 | epoxomicin -0.137 | [3] 0.024 | [4] 0.026 | [5] -0.075 | rosiglitazone -0.107 | [6] 0.108 | [7] 0.033

Continued.

TAB1 (UniProt Q15750)
inactive: [1] 0.005 | volasertib -0.233 | [2] 0.074 | epoxomicin 0.099 | [3] -0.048 | [4] -0.099 | [5] 0.041 | rosiglitazone -0.009 | [6] 0.045 | [7] -0.006

SUMO3 isoform 2 (UniProt P55854)
inactive: [1] 0.04 | volasertib 0.222 | [2] -0.074 | epoxomicin -0.068 | [3] 0.066 | [4] 0.08 | [5] -0.082 | rosiglitazone -0.043 | [6] 0.063 | [7] -0.08

TAL1 (UniProt P17542)
inactive: [1] 0.016 | volasertib 0.001 | [2] -0.047 | epoxomicin 0.031 | [3] 0.01 | [4] 0.025 | [5] 0.013 | rosiglitazone 0.018 | [6] -0.011 | [7] -0.024

SYNCRIP (UniProt O60506)
inactive: [1] 0.115 | volasertib 0.133 | [2] 0.026 | epoxomicin -0.123 | [3] 0.039 | [4] 0.111 | [5] -0.064 | rosiglitazone -0.065 | [6] 0.124 | [7] 0.11

SURF4 (UniProt O15260)
inactive: [1] 0.028 | volasertib -0.033 | [2] -0.05 | epoxomicin -0.084 | [3] -0.023 | [4] 0.015 | [5] -0.007 | rosiglitazone 0.033 | [6] -0.036 | [7] 0.107

SYNRG (UniProt Q9UMZ2)
inactive: [1] -0.003 | volasertib -0.099 | [2] 0.043 | epoxomicin -0.025 | [3] 0.023 | [4] -0.05 | [5] -0.004 | rosiglitazone 0.061 | [6] -0.029 | [7] 0.009

SYNJ1 (UniProt O43426)
inactive: [1] 0.077 | volasertib -0.009 | [2] -0.041 | epoxomicin -0.061 | [3] -0.037 | [4] -0.012 | [5] -0.009 | rosiglitazone -0.005 | [6] 0.088 | [7] 0.076

TAPT1 (UniProt Q6NXT6)
inactive: [1] 0 | volasertib 0.045 | [2] -0.04 | epoxomicin -0.058 | [3] -0.014 | [4] 0.033 | [5] 0.015 | rosiglitazone 0.046 | [6] -0.028 | [7] 0.007

SUPT6H (UniProt Q7KZ85)
inactive: [1] -0.046 | volasertib -0.259 | [2] 0.081 | epoxomicin 0.094 | [3] -0.094 | [4] -0.082 | [5] 0.104 | rosiglitazone 0.1 | [6] 0.011 | [7] -0.233

TALDO1 (UniProt P37837)
inactive: [1] -0.047 | volasertib 0.033 | [2] 0.052 | epoxomicin 0.058 | [3] 0.012 | [4] -0.059 | [5] 0 | rosiglitazone 0.037 | [6] -0.062 | [7] -0.089

SYPL1 (UniProt Q16563)
inactive: [1] 0.066 | volasertib -0.184 | [2] -0.029 | epoxomicin -0.031 | [3] 0.012 | [4] -0.129 | [5] -0.03 | rosiglitazone -0.011 | [6] -0.065 | [7] 0.147

Source: the supplement of paper PMC10849652
